Measured values published in article PMC7819943, “Rice protein-binding microarrays: a tool to detect cis-acting elements near promoter regions in rice”.
This is one part of the list.

molecular target: T1, OsSMF1 (Oryza sativa, UniProt Q6ZLB0 1-436); assay: protein-binding microarray (RPBM); PBS, 2% BSA, 51.3 ng/ul salmon testes DNA, 50 uM zinc acetate, 200 nM TF, 25 C, 1 h; high values mean tight binding; details: protein: recombinant; tags: N-terminal polyhistidine and DsRed monomer fusion (pET32a); chain copies: 2; label: CyDye5-dUTP incorporated in the synthesized complementary strand; 3' TTTTT single-stranded linker to array surface; dsDNA, one strand shown
T1 sequence: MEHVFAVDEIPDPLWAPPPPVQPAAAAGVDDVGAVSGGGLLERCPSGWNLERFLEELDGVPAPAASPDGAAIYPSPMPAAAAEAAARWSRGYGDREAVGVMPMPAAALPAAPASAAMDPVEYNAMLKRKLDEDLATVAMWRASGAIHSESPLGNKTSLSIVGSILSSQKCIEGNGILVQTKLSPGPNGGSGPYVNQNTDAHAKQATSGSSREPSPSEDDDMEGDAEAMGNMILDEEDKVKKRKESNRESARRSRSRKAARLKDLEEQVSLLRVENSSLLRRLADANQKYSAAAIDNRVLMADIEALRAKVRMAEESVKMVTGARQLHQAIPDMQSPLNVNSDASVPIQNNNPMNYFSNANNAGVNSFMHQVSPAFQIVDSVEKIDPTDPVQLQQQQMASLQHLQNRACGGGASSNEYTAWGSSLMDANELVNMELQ
In short: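 For the binding signal, per-feature fluorescence intensity was read in arbitrary units on an Axon 4000B scanner. Before scanning, a 2% BSA-blocked custom Agilent array made double-stranded with Cy5-dUTP was washed after 1 h at 25 °C with 200 nM protein and 50 µM zinc acetate. The proteins were Ni–NTA-purified transcription factors with N-terminal polyhistidine and DsRed fusions, expressed in E. coli BL21-CodonPlus.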

**Q.** With “AGAACAAGTCCTCATTGTTCTTGACACCCACCATGTGGCACGGAGTCACCTAGTGCAG” as the sequence, how does the binding signal read?
**A.** 3200 fluorescence intensity (a.u.)

**Q.** Which binding signal does the source give for “GTACGCTCTGGACACGGGGATCGATGCGTCTGGTGGGGTGCGGAGTCACCTAGTGCAG” here?
**A.** 3180 fluorescence intensity (a.u.)

**Q.** “ACTTGGACATATGCAGGTACCTCTTTGTGTTCAAAACCTTCGGAGTCACCTAGTGCAG” was tested. Which binding signal did it give?
**A.** 26000 fluorescence intensity (a.u.)

**Q.** How did the binding signal turn out when “TCACGAACTGTGTACCGGATGCCACGTCACACAGTTGTCTCGGAGTCACCTAGTGCAG” was run?
**A.** 41200 fluorescence intensity (a.u.)

**Q.** Which binding signal does the source give for “CCTGGAGCCAAACCGTGCTTGCCGTGCGGCGTGGCAGTCACGGAGTCACCTAGTGCAG” here?
**A.** 4280 fluorescence intensity (a.u.)

**Q.** With “CAACCACCTCATCATCATCATTATAATCAAGATCATTACCCGGAGTCACCTAGTGCAG” as the sequence, how does the binding signal read?
**A.** 4500 fluorescence intensity (a.u.)

**Q.** “CCCCTCGCGACCGCGACCGCGACGCGTGCACATGCCGCTGCGGAGTCACCTAGTGCAG” was tested. Which binding signal did it give?
**A.** 3160 fluorescence intensity (a.u.)

**Q.** How did the binding signal turn out when “TCCCCTAGCTAGAATTATTCACTTTTAGGCTTCTATTGTTCGGAGTCACCTAGTGCAG” was run?
**A.** 16800 fluorescence intensity (a.u.)

**Q.** “CACTTTCAACCCATATCTACCGTCCGTCTCCATCTGACACCGGAGTCACCTAGTGCAG” was tested. Which binding signal did it give?
**A.** 3870 fluorescence intensity (a.u.)

**Q.** “CTTTAATTCCTAAGGTGGAGTAGATGCTACACGCATAGATCGGAGTCACCTAGTGCAG” was tested. Which binding signal did it give?
**A.** 3550 fluorescence intensity (a.u.)

**Q.** Which binding signal does the source give for “TATGAGAAGGTTCCGCATTACCTGTAAAGGACACCACCACCGGAGTCACCTAGTGCAG” here?
**A.** 4290 fluorescence intensity (a.u.)

**Q.** With “CGTGCGGGGTGATGAGATACTGCTGCACGTCATCCGCCCCCGGAGTCACCTAGTGCAG” as the sequence, how does the binding signal read?
**A.** 17000 fluorescence intensity (a.u.)

**Q.** Which binding signal does the source give for “CAAATGCAGAAAAGATAATCTCCTTTCTCTCTCTATTAAACGGAGTCACCTAGTGCAG” here?
**A.** 31100 fluorescence intensity (a.u.)

**Q.** Which binding signal does the source give for “TTATATATCCCTGATAGCTGATTAGTTGGCACATCAGCATCGGAGTCACCTAGTGCAG” here?
**A.** 3210 fluorescence intensity (a.u.)

**Q.** With “GCTAGCTGCCGGTATATGATACATCCACGTCAGAGTAAAGCGGAGTCACCTAGTGCAG” as the sequence, how does the binding signal read?
**A.** 11900 fluorescence intensity (a.u.)

**Q.** How did the binding signal turn out when “ACTAAACAGATTTTCTTTAAAGTTTATGCAGAAAAGTTTCCGGAGTCACCTAGTGCAG” was run?
**A.** 5060 fluorescence intensity (a.u.)

**Q.** For “CTCCTCTCGCTCCACCGCTTCGTCACGCAGGCCTCCGTCGCGGAGTCACCTAGTGCAG”, which binding signal is on record?
**A.** 4200 fluorescence intensity (a.u.)

**Q.** With “CCGACGCTGTGGCAATCATTCGTCATACAGTAGTTGGCCACGGAGTCACCTAGTGCAG” as the sequence, how does the binding signal read?
**A.** 4090 fluorescence intensity (a.u.)

**Q.** For “CACTACTCATCAGCCCACGTTAACACGCGTTCTCCGGTGGCGGAGTCACCTAGTGCAG”, which binding signal is on record?
**A.** 3230 fluorescence intensity (a.u.)

**Q.** “TGTATTTGTCTTTGTTAGCTGAATTTGTGGCCATGGATTTCGGAGTCACCTAGTGCAG” was tested. Which binding signal did it give?
**A.** 23000 fluorescence intensity (a.u.)

**Q.** “ATCGAAGGCGAGAGCTCTTCTTCTTCCCCTCCTCCAAGCACGGAGTCACCTAGTGCAG” was tested. Which binding signal did it give?
**A.** 60500 fluorescence intensity (a.u.)

**Q.** With “CTGCCGCCGCCCGGGTCATCTGTTCCGCCCACCGCCGTCGCGGAGTCACCTAGTGCAG” as the sequence, how does the binding signal read?
**A.** 3480 fluorescence intensity (a.u.)

**Q.** How did the binding signal turn out when “GTGACATGAGTAGATGCTCAACGCTAACACGCCATATGTCCGGAGTCACCTAGTGCAG” was run?
**A.** 4300 fluorescence intensity (a.u.)
